# From US20260209306A1 (ALIVEGEN, published 2026)
# Results are given in words; binding and its absence hold for the method and conditions named. Some binding calls cover weakened binding; strength is not graded here. For some of these results: Sequences can lack the tags named with a protein.
# T1: BMP9 (UniProt Q9UK05 320-429)
# T1 sequence (looked up): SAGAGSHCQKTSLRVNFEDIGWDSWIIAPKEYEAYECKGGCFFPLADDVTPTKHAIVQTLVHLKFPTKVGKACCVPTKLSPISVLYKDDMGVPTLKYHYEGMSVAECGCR
# Legend:
# BMP9 [1] = molecular target: T1, BMP9; assay: Octet Red BLI
# BMP9 [2] = molecular target: T1, BMP9; assay: automated ELISA on KinExA instrument; BMP9-coated beads; 100 pM, 1 nM and 10 nM protein; reference of the comparison
# BMP9 [3] = molecular target: T1, BMP9; assay: KinExA
Binder,binding (BMP9 [1]),binding (BMP9 [2]),binding (BMP9 [3])
"AG-0003 hybrid ActRIIB ligand trap protein (Fc fusion, not shown: a dimerising Fc or GST) ETRECIYYNANWELERTNQSGLERCEGEQDKRLHCYASWRNSSGTIELVKKGCWLDDINCYDRTDCVEKKDSPEVYFCCCEGNFCNERFTHLPEAGGPEVTYEPPPTAPTGGGGSESKYGPPCPPCP",binds,–,–
"AG-0005 hybrid ActRIIB ligand trap protein (Fc fusion, not shown: a dimerising Fc or GST) ETRECIYYNANWELERTNQSGLERCEGEQDKRLHCYASWRNSSGTIELVKKGCWLDDFNCYDRTDCVEKKDSPQVYFCCCEGNFCNERFTHLPEAGGPEVTYEPPPTAPTGGGGSESKYGPPCPPCP",binds,–,–
"AG-0007 hybrid ActRIIB ligand trap protein (Fc fusion, not shown: a dimerising Fc or GST) ETRECIYYNANWELERTNQSGLERCEGEQDKRLHCYASWRNSSGTIELVKKGCWLDDFNCYDRQECVEKKDSPEVYFCCCEGNFCNERFTHLPEAGGPEVTYEPPPTAPTGGGGSESKYGPPCPPCP",binds,–,–
"AG-0006 hybrid ActRIIB ligand trap protein (Fc fusion, not shown: a dimerising Fc or GST) ETRECIYYNANWELERTNQSGLERCEGEQDKRLHCYASWRNSSGTIELVKKGCWLDDFNCYDRTDCVEKKDSPEVYFCCCEGNFCNERFTHLPEAGGPEVTYEPPPTAPTGGGGSESKYGPPCPPCP",binds,–,–

# Results, then the binder that gave them:
binding (BMP9 [1]),binding (BMP9 [2]),binding (BMP9 [3]),Binder
binds,–,–,"AG-0008 hybrid ActRIIB ligand trap protein (Fc fusion, not shown: a dimerising Fc or GST) ETRECIYYNANWELERTNQSGLERCEGEQDKRLHCYASWRNSSGTIELVKKGCWLDDFNCYDRQECVEKKDSPQVYFCCCEGNFCNERFTHLPEAGGPEVTYEPPPTAPTGGGGSESKYGPPCPPCP"
–,binds,binds,"wild-type ActRIIB-ECD-Fc fusion protein (Fc fusion, not shown: a dimerising Fc or GST) ETRECIYYNANWELERTNQSGLERCEGEQDKRLHCYASWRNSSGTIELVKKGCWLDDFNCYDRQECVATEENPQVYFCCCEGNFCNERFTHLPEAGGPEVTYEPPPTAPTGGGGSESKYGPPCPPCP"
